Reference: patent US20090233811A1, “Manufacture of Array Chips” (Randox Laboratories Ltd., priority 2005, published 2009)

Assay: Interference of dye in spotting buffer with chemiluminescent micro-spot immunoassay
Details: dye added to spotting buffer; produced pale colour on the substrate

## Fast Yellow
  Interference with the chemiluminescent micro-spot immunoassay: non-interfering
